In this assay the target is Mad2-StrepII (recombinant) (UniProt Q13257). The assay can be described thus: co-purification of co-expressed proteins (StrepTactin, GSTrap, SEC); Cdc20, BubR1 and Mad2 baculoviruses coinfected in High Five cells; lysate over StrepTactin (Mad2-StrepII), then GSTrap HP (BubR1-GST), TEV and HRV-3C on ice 4 h, then Superose 6 increase 10/300; 50 mM HEPES pH 7.5, 200 mM NaCl, 0.5 mM TCEP, 5% glycerol.

Amino acid sequences for entries named in this document (tags omitted). A change or cut given only in a name is not applied to a line headed by its entry.
UniProt Q13257: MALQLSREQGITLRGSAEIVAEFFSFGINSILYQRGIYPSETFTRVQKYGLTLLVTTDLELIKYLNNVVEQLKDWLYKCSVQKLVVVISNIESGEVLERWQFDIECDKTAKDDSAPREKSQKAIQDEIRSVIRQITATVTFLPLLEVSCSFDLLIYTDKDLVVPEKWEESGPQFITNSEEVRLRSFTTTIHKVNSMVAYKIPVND
UniProt O60566: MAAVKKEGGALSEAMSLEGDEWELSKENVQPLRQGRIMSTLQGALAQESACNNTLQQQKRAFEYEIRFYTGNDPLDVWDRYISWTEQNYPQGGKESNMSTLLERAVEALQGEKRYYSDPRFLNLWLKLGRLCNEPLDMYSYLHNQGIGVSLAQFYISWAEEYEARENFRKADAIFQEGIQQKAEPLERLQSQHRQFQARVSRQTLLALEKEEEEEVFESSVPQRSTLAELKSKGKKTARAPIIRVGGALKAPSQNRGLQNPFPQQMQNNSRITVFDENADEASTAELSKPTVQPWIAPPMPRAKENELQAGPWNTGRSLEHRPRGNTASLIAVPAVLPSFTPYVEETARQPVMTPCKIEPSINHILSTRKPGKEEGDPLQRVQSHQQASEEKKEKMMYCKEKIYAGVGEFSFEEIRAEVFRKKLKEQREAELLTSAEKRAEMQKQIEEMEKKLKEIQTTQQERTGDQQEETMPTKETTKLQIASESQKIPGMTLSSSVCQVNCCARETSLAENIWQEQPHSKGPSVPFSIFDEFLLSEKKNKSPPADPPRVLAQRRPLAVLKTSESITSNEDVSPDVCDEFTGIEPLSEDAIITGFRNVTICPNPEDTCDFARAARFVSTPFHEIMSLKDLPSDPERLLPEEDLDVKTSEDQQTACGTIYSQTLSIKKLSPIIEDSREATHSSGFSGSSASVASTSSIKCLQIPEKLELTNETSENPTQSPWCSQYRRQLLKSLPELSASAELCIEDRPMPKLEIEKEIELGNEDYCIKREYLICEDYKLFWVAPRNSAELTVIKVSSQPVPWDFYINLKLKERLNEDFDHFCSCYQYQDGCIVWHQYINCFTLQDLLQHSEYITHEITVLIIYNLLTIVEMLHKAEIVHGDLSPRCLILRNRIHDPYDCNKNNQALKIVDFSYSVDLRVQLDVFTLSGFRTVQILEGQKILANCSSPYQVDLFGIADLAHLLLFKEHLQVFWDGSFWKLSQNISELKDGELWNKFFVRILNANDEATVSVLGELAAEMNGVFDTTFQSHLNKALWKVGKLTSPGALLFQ

Results are given in words; binding and its absence hold for the method and conditions named. Some results given as binding are weak or reduced against the parent protein; the word gives no strength.

As for “BubR1-GST I242D/I243D/V245D/L249D (4D) (recombinant) (from UniProt O60566 1-1050)”, the binding entry was “binds”.

The values above are taken from publication PMC10858191.
